In the supplement of paper PMC10626197:

Test system: MCF7
Test: cell viability relative to DMSO control (raw); higher = more viable cells
Conditions: exposure time 72 h
Experimental: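 MCF7 cells, 1000 cells/well in 384-well plates, treated with 6x6 dose matrices of drug pairs (1:3 serial dilutions, DMSO as lowest dose) for 72 h at 37 °C. Viability read by CellTiter-Glo luminescence, 3 biological replicates. Normalised viability sets 0% at the highest doxorubicin dose and 100% at the 0,0 µM control per combination.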

CC/C(=C(\c1ccccc1)c1ccc(OCCN(C)C)cc1)c1ccccc1 [Tamoxifen] + CCCCC[C@H](O)/C=C/[C@H]1[C@H](O)CC(=O)[C@@H]1CCCCCCC(=O)O [Prostaglandin E1]
cell viability [%]
Conditions	drug 2 concentration 0 µM	drug 2 concentration 0.617284 µM	drug 2 concentration 1.85185 µM	drug 2 concentration 5.55556 µM	drug 2 concentration 16.6667 µM	drug 2 concentration 50 µM
drug 1 concentration 0.123457 µM	108 ± 5.1	109 ± 5.6	108 ± 3.8	113 ± 9.9	104 ± 5	73.9 ± 3.7
drug 1 concentration 0.37037 µM	103 ± 6	118 ± 9.4	124 ± 8.1	117 ± 4.9	110 ± 3.9	75.7 ± 6.2
drug 1 concentration 1.11111 µM	105 ± 3.9	115 ± 7.5	114 ± 2.6	109 ± 1.7	104 ± 4.4	83.3 ± 12
drug 1 concentration 3.33333 µM	95.8 ± 3.5	102 ± 3.2	116 ± 3.6	102 ± 2.8	99.4 ± 5.4	74.6 ± 5.1
drug 1 concentration 10 µM	54.7 ± 4	49 ± 6.1	57 ± 14	59.5 ± 4.7	56.6 ± 9.7	44.5 ± 5.4

CC[C@@]1(O)C(=O)OCc2c1cc1n(c2=O)Cc2cc3c(CN(C)C)c(O)ccc3nc2-1 [Topotecan] + CC(C)NCC(O)COc1ccc(CCOCC2CC2)cc1 [Betaxolol (hydrochloride)]
cell viability [%]
Conditions	drug 2 concentration 0 µM	drug 2 concentration 0.308642 µM	drug 2 concentration 0.925926 µM	drug 2 concentration 2.77778 µM	drug 2 concentration 8.33333 µM	drug 2 concentration 25 µM
drug 1 concentration 0.00617284 µM	112 ± 8.6	108 ± 10	106 ± 9.6	108 ± 13	103 ± 13	101 ± 12
drug 1 concentration 0.0185185 µM	110 ± 13	124 ± 8.1	121 ± 8.2	121 ± 5.2	102.9 ± 0.96	103 ± 8
drug 1 concentration 0.0555556 µM	100 ± 4.3	102 ± 9.8	104 ± 11	107 ± 7	101 ± 11	103 ± 3.4
drug 1 concentration 0.166667 µM	97.2 ± 7.9	100 ± 5.9	99 ± 2.3	103 ± 9.6	101 ± 16	103 ± 11
drug 1 concentration 0.5 µM	89.8 ± 8.6	89.9 ± 2	92.5 ± 13	87.9 ± 3.1	97.2 ± 4.3	91 ± 8.8

Oc1ncnc2[nH]ncc12 [Allopurinol] + COc1cc2nc(N3CCN(C(=O)C4CCCO4)CC3)nc(N)c2cc1OC [Terazosin (hydrochloride dihydrate)]
cell viability [%]
Conditions	drug 2 concentration 0 µM	drug 2 concentration 0.0308642 µM	drug 2 concentration 0.0925926 µM	drug 2 concentration 0.277778 µM	drug 2 concentration 0.833333 µM	drug 2 concentration 2.5 µM
drug 1 concentration 0.740741 µM	83.9 ± 14	85.6 ± 9.9	96.2 ± 23	95.1 ± 23	89.5 ± 31	87.6 ± 30
drug 1 concentration 2.22222 µM	85.5 ± 6.3	88.4 ± 14	90.8 ± 18	93.3 ± 18	92.5 ± 14	78.9 ± 8.2
drug 1 concentration 6.66667 µM	94.1 ± 15	91.1 ± 17	91.7 ± 14	82.7 ± 13	91.8 ± 21	93.5 ± 9.7
drug 1 concentration 20 µM	85.1 ± 9.8	89.2 ± 12	95.8 ± 26	95.3 ± 19	86.3 ± 15	84.6 ± 5.3
drug 1 concentration 60 µM	98.9 ± 1.4	105 ± 16	106 ± 15	97.5 ± 11	95.2 ± 11	94.5 ± 21

Counter-ions that a name gives are not always drawn. ± gives the standard deviation of the averaged measurements. Some well-known active drugs show little effect in this data set, so a weak value is uncertain.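 MCF7, a breast cancer cell line, was exposed to pairs of drugs across a grid of doses. Every plate had solvent-only (DMSO) wells as the untreated reference and a doxorubicin series as the total-kill control. No hit threshold is applied to these viability readings.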
